Values of other authors in publication PMC6662551 (Clinical and Translational Science, 2019).

Tested on: OATP1B1
Details: c.521T>C carriers; cited from earlier work

For CC(C)c1c(C(=O)Nc2ccccc2)c(-c2ccccc2)c(-c2ccc(F)cc2)n1CC[C@@H](O)C[C@@H](O)CC(=O)O [atorvastatin], the “increase in plasma levels in individuals with the OATP1B1‐Val174Ala variant” value is given as 1.5–3 fold.
